According to publication PMC12187939:
Results are given in words; binding and its absence hold for the method and conditions named. Binding seen in cells or lysates may run through a third protein. Some results given as binding are weak or reduced against the parent protein; the word gives no strength. Where a sequence is shown, tags or fusion partners need not be part of it.

Chains of the proteins cited; added tags and fusions are not shown.
UniProt Q92793: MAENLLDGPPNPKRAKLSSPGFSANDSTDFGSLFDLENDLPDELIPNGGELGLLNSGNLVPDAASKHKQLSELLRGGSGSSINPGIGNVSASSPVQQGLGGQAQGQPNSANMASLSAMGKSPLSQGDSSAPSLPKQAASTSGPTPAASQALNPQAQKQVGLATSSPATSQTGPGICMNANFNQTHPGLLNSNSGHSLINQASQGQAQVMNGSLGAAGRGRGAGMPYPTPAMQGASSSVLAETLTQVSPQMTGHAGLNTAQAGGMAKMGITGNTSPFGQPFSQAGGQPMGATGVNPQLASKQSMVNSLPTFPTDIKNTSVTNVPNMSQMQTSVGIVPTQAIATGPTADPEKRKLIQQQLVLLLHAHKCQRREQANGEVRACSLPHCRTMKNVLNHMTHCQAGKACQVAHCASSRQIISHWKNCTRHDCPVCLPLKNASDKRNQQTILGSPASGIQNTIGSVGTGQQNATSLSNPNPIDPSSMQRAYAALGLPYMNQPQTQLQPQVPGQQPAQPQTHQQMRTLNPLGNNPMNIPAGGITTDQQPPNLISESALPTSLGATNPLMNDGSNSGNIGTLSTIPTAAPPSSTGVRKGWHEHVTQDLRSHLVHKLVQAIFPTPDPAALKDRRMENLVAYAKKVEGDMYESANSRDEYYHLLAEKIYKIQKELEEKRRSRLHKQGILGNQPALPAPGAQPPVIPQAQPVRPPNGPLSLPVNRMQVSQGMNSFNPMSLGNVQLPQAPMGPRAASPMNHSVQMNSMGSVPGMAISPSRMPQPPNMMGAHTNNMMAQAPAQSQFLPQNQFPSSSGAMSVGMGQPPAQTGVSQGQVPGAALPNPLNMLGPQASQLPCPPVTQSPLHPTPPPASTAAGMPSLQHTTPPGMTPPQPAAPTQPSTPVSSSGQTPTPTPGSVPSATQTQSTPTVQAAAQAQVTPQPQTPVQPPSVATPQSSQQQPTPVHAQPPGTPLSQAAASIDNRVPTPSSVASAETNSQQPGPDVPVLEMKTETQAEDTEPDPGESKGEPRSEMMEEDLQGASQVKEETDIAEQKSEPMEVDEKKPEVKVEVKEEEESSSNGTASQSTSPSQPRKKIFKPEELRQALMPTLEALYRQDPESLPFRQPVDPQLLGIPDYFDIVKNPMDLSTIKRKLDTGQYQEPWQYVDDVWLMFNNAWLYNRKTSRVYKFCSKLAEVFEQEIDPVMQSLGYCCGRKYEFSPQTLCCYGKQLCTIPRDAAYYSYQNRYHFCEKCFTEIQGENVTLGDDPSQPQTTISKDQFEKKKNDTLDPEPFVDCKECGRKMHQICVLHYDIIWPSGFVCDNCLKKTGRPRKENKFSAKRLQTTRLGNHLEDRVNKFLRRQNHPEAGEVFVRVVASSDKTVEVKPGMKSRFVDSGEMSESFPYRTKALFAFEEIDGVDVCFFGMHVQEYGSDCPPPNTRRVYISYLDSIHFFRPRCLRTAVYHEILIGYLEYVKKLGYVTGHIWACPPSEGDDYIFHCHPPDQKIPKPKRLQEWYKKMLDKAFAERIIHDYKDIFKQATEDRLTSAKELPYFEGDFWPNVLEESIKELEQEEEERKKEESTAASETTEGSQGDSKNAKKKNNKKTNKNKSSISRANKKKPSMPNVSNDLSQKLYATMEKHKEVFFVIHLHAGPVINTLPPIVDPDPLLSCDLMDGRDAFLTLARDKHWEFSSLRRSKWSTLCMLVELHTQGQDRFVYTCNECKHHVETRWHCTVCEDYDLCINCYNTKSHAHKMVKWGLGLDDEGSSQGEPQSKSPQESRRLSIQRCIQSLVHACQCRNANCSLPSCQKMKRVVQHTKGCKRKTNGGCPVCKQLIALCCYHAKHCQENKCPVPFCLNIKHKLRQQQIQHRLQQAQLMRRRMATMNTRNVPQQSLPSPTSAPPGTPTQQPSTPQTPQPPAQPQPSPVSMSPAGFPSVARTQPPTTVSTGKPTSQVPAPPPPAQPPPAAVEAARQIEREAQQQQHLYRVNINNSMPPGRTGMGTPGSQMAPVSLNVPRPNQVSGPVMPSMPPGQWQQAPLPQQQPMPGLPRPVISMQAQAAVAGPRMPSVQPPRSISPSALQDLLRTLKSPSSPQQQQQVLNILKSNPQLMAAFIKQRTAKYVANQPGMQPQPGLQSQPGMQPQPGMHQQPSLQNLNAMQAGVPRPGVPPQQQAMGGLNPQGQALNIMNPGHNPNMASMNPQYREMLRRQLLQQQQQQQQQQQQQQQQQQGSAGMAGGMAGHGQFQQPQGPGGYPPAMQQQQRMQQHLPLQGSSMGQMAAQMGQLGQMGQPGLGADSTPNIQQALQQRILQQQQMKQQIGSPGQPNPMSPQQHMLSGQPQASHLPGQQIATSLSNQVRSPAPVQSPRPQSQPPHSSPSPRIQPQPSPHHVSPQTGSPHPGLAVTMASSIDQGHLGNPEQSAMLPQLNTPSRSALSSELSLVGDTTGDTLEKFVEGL
UniProt O60675: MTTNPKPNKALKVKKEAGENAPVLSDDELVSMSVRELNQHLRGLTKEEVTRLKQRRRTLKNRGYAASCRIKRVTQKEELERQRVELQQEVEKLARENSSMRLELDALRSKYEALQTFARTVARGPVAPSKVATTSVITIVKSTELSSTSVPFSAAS

Biological target: T1, FLAG-tagged WT NRF2 (nuclear factor erythroid 2-related factor 2), expressed in HEK293 (UniProt Q16236)
T1 sequence: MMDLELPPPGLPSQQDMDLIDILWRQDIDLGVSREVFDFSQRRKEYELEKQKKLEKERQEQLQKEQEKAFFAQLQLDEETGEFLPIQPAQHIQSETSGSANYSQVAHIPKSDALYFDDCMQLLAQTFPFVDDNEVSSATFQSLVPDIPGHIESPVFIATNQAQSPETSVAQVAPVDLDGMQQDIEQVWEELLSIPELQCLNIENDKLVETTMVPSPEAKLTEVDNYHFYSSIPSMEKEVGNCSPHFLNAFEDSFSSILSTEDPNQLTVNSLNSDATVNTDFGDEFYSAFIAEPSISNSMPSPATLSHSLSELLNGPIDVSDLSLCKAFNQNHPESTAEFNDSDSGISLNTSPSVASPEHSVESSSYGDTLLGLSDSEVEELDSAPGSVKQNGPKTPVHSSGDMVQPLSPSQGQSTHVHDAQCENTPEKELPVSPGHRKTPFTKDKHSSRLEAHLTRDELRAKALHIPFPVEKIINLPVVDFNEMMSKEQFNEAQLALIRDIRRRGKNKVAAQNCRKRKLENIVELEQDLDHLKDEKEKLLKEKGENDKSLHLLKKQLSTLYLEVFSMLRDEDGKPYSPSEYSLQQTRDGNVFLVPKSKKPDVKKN
Experiment: co-IP; FLAG immunoprecipitation (anti-FLAG M2 magnetic beads, overnight at 4 °C) from lysates of HEK293 cells transfected with FLAG-tagged NRF2 constructs or luciferase, with or without GFP-tagged CBP; FLAG-IP buffer 50 mM Tris-HCl, 150 mM NaCl, 1 mM EDTA, 1% Triton X-100; western blot

binding	Substance
binds	GFP-tagged CBP, expressed in HEK293 (from UniProt Q92793 1-2442)
binds	MAFK (sMAF protein) in HEK293 lysate (from UniProt O60675 1-156)
